# Data published in the supplement of paper PMC12823440, “Inhibitors supercharge kinase turnover through native proteolytic circuits” (Nature, 2025).
# The chains behind the UniProt entries cited, without tags or fusion partners.
# UniProt P07947, whole entry, looked up: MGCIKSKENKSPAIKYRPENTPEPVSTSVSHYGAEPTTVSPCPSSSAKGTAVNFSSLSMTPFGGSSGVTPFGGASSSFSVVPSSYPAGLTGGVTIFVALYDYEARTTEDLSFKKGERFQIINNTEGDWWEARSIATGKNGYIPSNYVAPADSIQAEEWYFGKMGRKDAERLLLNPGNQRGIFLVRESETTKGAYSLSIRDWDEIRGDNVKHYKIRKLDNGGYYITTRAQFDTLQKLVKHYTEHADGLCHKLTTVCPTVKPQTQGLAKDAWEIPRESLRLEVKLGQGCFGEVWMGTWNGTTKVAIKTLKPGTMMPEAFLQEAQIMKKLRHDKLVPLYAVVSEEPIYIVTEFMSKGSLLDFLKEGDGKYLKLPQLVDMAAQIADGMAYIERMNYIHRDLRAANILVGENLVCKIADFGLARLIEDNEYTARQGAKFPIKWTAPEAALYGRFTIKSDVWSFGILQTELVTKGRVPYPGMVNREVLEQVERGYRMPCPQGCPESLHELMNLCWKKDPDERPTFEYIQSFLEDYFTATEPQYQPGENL
# Counter-ions that a name gives are not always drawn. Some of the results follow. The calls rarely recur for the same compound in another form.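 Kinases were expressed as nanoluciferase fusions in K562 cells and luminescence was read every 4 h between 2 and 18 h as percent of control, DMSO set to 100% and a positive control to 0%. A time point counts as decreased when the signal drops significantly (2 sigma). The hit call is the authors' own, does not follow from the count of time points alone, and its rule is not shown.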
# Biological target: YES1 (UniProt P07947)
# Experiment: number of time points (of 5) at which kinase-Nluc abundance scored as decreased, DMSO-normalised (count); higher = more persistent destabilization
# Details: K562; 2-18 h
row,SMILES,number of time points
1,CC(C)n1ncnc1-c1cn2c(n1)-c1ccc(O[C@@H](C)C(N)=O)cc1OCC2 (10 µM),0
2,O=C(c1cccc(Cl)c1F)N1CCN(Cc2cccc(Nc3nccs3)n2)CC1 (2.5 µM),0
3,COc1cc(F)ccc1-c1ncnc(Nc2cccc(C[S@](C)(=N)=O)c2)n1 [Atuveciclib] (2.5 µM),2
4,Cc1cnc(NC(=O)c2cc(Oc3cnc(C(=O)N(C)C)nc3)c3cc(C)oc3c2)cn1 (10 µM),0
5,CC1=C(C(=O)Nc2cc3cn[nH]c3cc2F)C(c2ccc(C(F)(F)F)cc2)CC(=O)N1 (stereo not drawn) (10 µM),0
6,NCC1CCC(CNc2nc(NCc3ccccc3OC(F)(F)F)ncc2[N+](=O)[O-])CC1 (stereo not drawn) [PKC-theta inhibitor] (10 µM),0
7,O=C1Nc2ccc(I)cc2/C1=C/c1cc(Br)c(O)c(Br)c1 (10 µM),0
8,COc1cc(-c2oc3cc(O)cc(O)c3c(=O)c2O)ccc1O [Isorhamnetin] (10 µM),0
9,O=C1OC(/C=C/c2ccccc2)=NC/1=C\c1cccnc1 (10 µM),0
10,Cn1ncc(NC(=O)c2nc(-c3c(F)cccc3F)sc2N)c1N1CC[C@@H](N)[C@H](F)CC1 (10 µM),0
11,CNC(=O)CNc1cnc2ccc(-c3ccc(OC)c(OC)c3)cc2n1 (10 µM),0
12,CO[C@H]1C[C@@H]2CC[C@@H](C)[C@@](O)(O2)C(=O)C(=O)N2CCCC[C@H]2C(=O)O[C@H]([C@H](C)C[C@@H]2CC[C@@H](OCCO)[C@H](OC)C2)CC(=O)[C@H](C)/C=C(\C)[C@@H](O)[C@@H](OC)C(=O)[C@H](C)C[C@H](C)/C=C/C=C/C=C/1C [Everolimus] (10 µM),0
13,O=C(Nc1cccnc1)c1cc(-c2ccnc(F)c2)ccc1OCc1ccccc1 (10 µM),0
14,COc1c(O)cc2oc(-c3ccc(O)cc3)cc(=O)c2c1O [Hispidulin] (10 µM),0
15,O=C1CC[C@H](NC(=O)Cc2ccccc2)C(=O)N1 [Antineoplaston A10] (10 µM),0
16,CC(C)Oc1ccc(F)c(-c2cnc(N)c(C(=O)Nc3cnccc3N3CCC[C@@H](C(=O)O)C3)n2)c1 (2 µM),1
17,Nc1nc2c(nc(Br)n2[C@@H]2O[C@@H]3COP(=O)(O)O[C@H]3[C@H]2O)c(=O)[nH]1 [8-Bromo-cGMP (sodium)] (10 µM),0
18,Cc1cc(-n2c(=O)ccc3c[nH]c4nccc-4c32)ccc1F (10 µM),0
19,CO[C@H]1CC[C@H](N2C(=O)CNc3ncc(-c4ccc(C(C)(C)O)nc4)nc32)CC1 (2.5 µM),0

row,SMILES,number of time points
1,COc1cc2c(cc1OC)/C(=C/c1ccc(O)cc1)C(=O)N2 (10 µM),0
2,NCCOc1ccc(Cl)cc1C(=O)Nc1ccc([N+](=O)[O-])cc1Cl [HJC0152 hydrochloride] (2 µM),0
3,CCN(CC)CCOc1ccc(Nc2nc(-c3ccccc3NC(=O)CCN3CCN(C)CC3)nc3ccccc23)cc1 (2.5 µM),0
4,C=CC(=O)N1CCN(C(=O)CNc2cc(I)c(Cl)cc2O)CC1 [K-Ras(G12C) inhibitor 12] (10 µM),0
5,N[C@@H]1CCCN(c2c(/C=C3\SC(=O)NC3=O)cccc2-c2ccccc2)C1 (10 µM),0
6,O=C(Nc1cc(Cl)cc2c1[nH]c1cnccc12)c1cccnc1 (10 µM),0
7,C=C1C(=O)[C@@]23[C@H](O)C[C@@H]4C(C)(C)C(=O)CC[C@@]4(C)[C@@H]2CC[C@@H]1[C@H]3O [Glaucocalyxin A] (2.5 µM),0
8,C[C@@H]1O[C@@H](Oc2cc(O)c3c(=O)c(O[C@@H]4O[C@@H](C)[C@H](O)[C@@H](O)[C@H]4O)c(-c4ccc(O)cc4)oc3c2)[C@H](O)[C@H](O)[C@H]1O [Kaempferitrin] (10 µM),0
9,Cc1c(C(=O)Nc2ccc(Oc3ccnc4[nH]cc(-c5ccccc5)c34)c(F)c2)c(=O)n(-c2ccc(F)cc2)n1C (10 µM),0
10,c1nc2c(NC3CCCCC3)nc(Nc3ccc(N4CCOCC4)cc3)nc2[nH]1 [Reversine] (10 µM),0
11,CN1CCN(c2ccc(Nc3ncc4cc(C#N)c(=O)n(C5CCCC5)c4n3)cc2)CC1 (10 µM),0
12,NC[C@@](O)(c1ccc(Cl)cc1)c1ccc(-c2cn[nH]c2)cc1 (10 µM),0
13,Cc1ccc(-n2nc(C(C)(C)C)cc2NC(=O)Nc2ccc(OCCN3CCOCC3)cc2)cc1 (10 µM),0
14,c1ccc(Cn2c(-c3ccc(OC[C@H](C4CCNCC4)n4c(-c5ccccc5)nc5ccccc54)cc3)nc3ccccc32)cc1 [Deltarasin] (2.5 µM),0
15,C=CC(=O)N1CC[C@@H](Oc2nc(Nc3ccc(N4CCC(N5CCN(C)CC5)CC4)cc3)c(C(N)=O)nc2CC)C1 [Naquotinib (mesylate)] (2.5 µM),0
16,Cc1cc(O)c2c(c1)C(=O)c1cccc(O)c1C2=O [Chrysophanol] (2 µM),0
17,Cc1cc(C(=O)NC(C)(C)C)cc(C#Cc2ccc3c4c(oc3c2)C(C)(C)c2cc(NS(C)(=O)=O)ccc2C4=O)n1 (10 µM),0
18,Nc1nc(NCCNc2ncc(-n3ccnc3)c(-c3ccc(Cl)cc3Cl)n2)ccc1[N+](=O)[O-] (2.5 µM),0
19,Cn1c(CNc2cccc(C(=O)NCc3ccccc3C(F)(F)F)c2)nnc1-c1ccncc1 (10 µM),0

# 2 compounds picked at random from those above, as already listed:
row,SMILES,number of time points
13,Cc1ccc(-n2nc(C(C)(C)C)cc2NC(=O)Nc2ccc(OCCN3CCOCC3)cc2)cc1 (10 µM),0
14,c1ccc(Cn2c(-c3ccc(OC[C@H](C4CCNCC4)n4c(-c5ccccc5)nc5ccccc54)cc3)nc3ccccc32)cc1 [Deltarasin] (2.5 µM),0
